Columns and labels:
[1] = system: Human immunodeficiency virus 1; test: Antiviral activity against HIV1 harboring Y181C mutant infected in MT4 cells; assay type: functional, organism-based; details: Human immunodeficiency virus 1, MT4
[2] = system: Human immunodeficiency virus 1; test: microbe, parasite or virus in culture; details: Human immunodeficiency virus 1, RES056, MT4
[3] = Cytotoxicity against human MT4 cells assessed as reduction in cell viability by MTT assay; assay type: toxicity, cell-based

Cc1cc(/C=C/C#N)cc(C)c1Oc1ccnc(Nc2ccc(CN3CCN(S(C)(=O)=O)CC3)cc2)n1
EC50 [1]: 27 nM
EC50 [2]: 590 nM
CC50 [3]: 5680 nM
